Results as given in patent US20160024193A1 (AC IMMUNE S A, published 2016).
These are yes or no findings as the source states them, for the method shown.

T1: Non-phospho. (not fully specified; printed as Biotin - linker - GDTSPRHLSNVSSTGSID; reading uncertain)
T1 construct: also called non-phosphorylated biotinylated Tau 401-418 peptide
T1 peptide: {Biotin-linker}-GDTSPRHLSNVSSTGSID

T2: Non-phospho.
T2 sequence (peptide, N-terminal Biotin - linker): GDTSPRHLSNVSSTGSID


Experiments:
Non-phospho. [1] = target: T1, Non-phospho.; assay: ELISA: plate coated with 5 µg/ml IgG, 10 nM biotinylated peptide in solution, streptavidin-peroxidase/TMB, absorbance 450 nm
Experimental: FIG. 3. Binding of immobilized IgG antibodies to Tau-derived biotinylated peptides containing pS404 and/or pS409 as measured by ELISA. […] 10 nM of the biotinylated peptides shown in FIG. 3, and 5 μg/ml IgG, were used.
Specificity of the top five clones for phosphoserine 404 and phosphoserine 409 was also assessed by ELISA. In one experiment (FIG. 3), Nunc maxisorp microplates were coated with 5 μg/ml IgG in coating buffer (sodium carbonate pH9.6) for 70 minutes at ambient temperature. Non-specific binding sites were blocked with BBT for a minimum of 2 hours then the plates washed and 10 nM biotinylated peptide in BBT added. After 1.5 hours bound peptide was detected by a 65 minute incubation with peroxidase-conjugated Streptavidin and detection with TMB as described above. […] The peptides synthesized and used in this experiment (which correspond to amino acids 401-418 of full-length Tau) have the following amino acid sequences (Table B): […]

Non-phospho. [2] = target: T1, Non-phospho.; assay: ELISA: 20 nM biotinylated peptide captured on Neutravidin-coated plate, IgG at 0.01, 0.1, 1, 10 and 100 nM, anti-human-peroxidase/TMB, absorbance 450 nm [D00008 Fig. 4C – 4D; D00009 Fig. 4E]
Non-phospho. [3] = target: T2, Non-phospho.; assay: as above
Non-phospho. [4] = target: T2, Non-phospho.; assay: ELISA: plate coated with 5 µg/ml IgG, 10 nM biotinylated peptide in solution, streptavidin-peroxidase/TMB, absorbance 450 nm

Binder | binding (Non-phospho. [1]) | binding (Non-phospho. [2]) | binding (Non-phospho. [3]) | binding (Non-phospho. [4])
5202.4 (hIgG1 antibody) (antibody, V domains shown) VH: EVQLVQSGAEVKKPGSSVKVSCKASGYTFTDYYMNWVRQAPGQGLEWIGDINPNRGGTTYNQKFKGRVTITVDKSTSTAYMELSSLRSEDTAVYYCASYYAVGYWGQGTTVTVSS VL: DIVMTQTPLSLPVTPGEPASISCRSSQSLVHSHGKTYLHWYLQKPGQSPQLLIYKVSNRFSGVPDRFSGSGSGTDFTLKISRVEAEDVGVYFCSQTAHFPYTFGGGTKVEIKR | no binding (tested: 10 nM) | no binding (tested: 100 nM) |  | 
TAM1 IgG1 (antibody, V domains shown) VH: EVQLVQSGAEVKKPGSSVKVSCKASGYTFTDYYMNWVRQAPGQGLEWIGDINPNRGGTTYNQKFKGRVTITVDKSTSTAYMELSSLRSEDTAVYYCASYYAVGYWGQGTTVTVSS VL: DIVMTQTPLSLPVTPGEPASISCRSSQSLVHRNGKTYLHWYLQKPGQSPQLLIYKVSNRFSGVPDRFSGSGSGTDFTLKISRVEAEDVGVYFCSQTARFPYTFGGGTKVEIKR |  |  | no binding (tested: 100 nM) | no binding (tested: 10 nM)
TAM2 IgG1 (antibody, V domains shown) VH: EVQLVQSGAEVKKPGSSVKVSCKASGYTFTDYYMNWVRQAPGQGLEWIGDINPNRGGTTYNQKFKGRVTITVDKSTSTAYMELSSLRSEDTAVYYCASYYAVGYWGQGTTVTVSS VL: DIVMTQTPLSLPVTPGEPASISCRSSQSLVHSRGKTYLHWYLQKPGQSPQLLIYKVSNRFFGVPDRFSGSGSGTDFTLKISRVEAEDVGVYFCSQTARFPYTFGGGTKVEIKR |  |  | no binding (tested: 100 nM) | no binding (tested: 10 nM)

Results, then the binder that gave them:

binding (Non-phospho. [1]) | binding (Non-phospho. [2]) | binding (Non-phospho. [3]) | binding (Non-phospho. [4]) | Binder
 |  | no binding (tested: 100 nM) | no binding (tested: 10 nM) | TAM9 IgG1 (antibody, V domains shown) VH: EVQLVQSGAEVKKPGSSVKVSCKASGYTFTDYYMNWVRQAPGQGLEWIGDINPNRGGTTYNQKFKGRVTITVDKSTSTAYMELSSLRSEDTAVYYCASYYAVGYWGQGTTVTVSS VL: DIVMTQTPLSLPVTPGEPASISCRSSQSLVRSHGKTYLHWYLQKPGQSPQLLIYKVSNRFKGVPDRFSGSGSGTDFTLKISRVEAEDVGVYFCSQTAQFPYTFGGGTKVEIKR
 |  | no binding (tested: 100 nM) | no binding (tested: 10 nM) | TAM19 IgG1 (antibody, V domains shown) VH: EVQLVQSGAEVKKPGSSVKVSCKASGYTFTDYYMNWVRQAPGQGLEWIGDINPNRGGTTYNQKFKGRVTITVDKSTSTAYMELSSLRSEDTAVYYCASYYAVGYWGQGTTVTVSS VL: DIVMTQTPLSLPVTPGEPASISCRSSQSLRHSHGKTYLHWYLQKPGQSPQLLIYKVSHRFSGVPDRFSGSGSGTDFTLKISRVEAEDVGVYFCSQTRHFPYTFGGGTKVEIKR
